A: 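Histidine-tRNA ligase, Leishmania infantum (UniProt A4I591). Enzyme assay of histidyl-tRNA synthetase; the read-out is not stated. Concentration: 30 µM. The record gives no direction; compounds that gave an IC50 in retests scored well above the rest, so higher reads as stronger inhibition. The assay is labelled LdHisRS but filed under L. infantum. Size under these conditions: about 69,000 compounds, about 410 of them at 50% or above in at least one test.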
B: 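Enzyme assay of the thioesterase domain of polyketide synthase 13; the read-out is not stated. Target: Polyketide synthase Pks13, Mycobacterium tuberculosis (UniProt I6X8D2). Tested at 30 µM. Higher reads as stronger inhibition (inferred from which compounds were picked for retests). Of about 67,000 compounds tested this way, about 300 (0.46%) reached 50% or more in at least one test.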
C: 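Tryptophan-tRNA ligase, Mycobacterium tuberculosis (UniProt P9WFT3). Enzyme assay of tryptophanyl-tRNA synthetase; the read-out is not stated. Compounds at 10 µM. Higher most likely means stronger inhibition; the record gives no direction and few retests gave an IC50. Of about 65,000 compounds tested this way, about 64 (0.098%) reached 50% or more in at least one test.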
D: 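Histidine-tRNA ligase, Trypanosoma cruzi CL Brener (UniProt Q4DA54). Enzyme assay of histidyl-tRNA synthetase; the read-out is not stated. Compounds at 30 µM. The record gives no direction; compounds that gave an IC50 in retests scored well above the rest, so higher reads as stronger inhibition. Size under these conditions: about 69,000 compounds, about 31 of them at 50% or above in at least one test.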

Amino acid sequences for entries named in this document (tags omitted). Residues count along the entry.
UniProt A4I591, 1-473: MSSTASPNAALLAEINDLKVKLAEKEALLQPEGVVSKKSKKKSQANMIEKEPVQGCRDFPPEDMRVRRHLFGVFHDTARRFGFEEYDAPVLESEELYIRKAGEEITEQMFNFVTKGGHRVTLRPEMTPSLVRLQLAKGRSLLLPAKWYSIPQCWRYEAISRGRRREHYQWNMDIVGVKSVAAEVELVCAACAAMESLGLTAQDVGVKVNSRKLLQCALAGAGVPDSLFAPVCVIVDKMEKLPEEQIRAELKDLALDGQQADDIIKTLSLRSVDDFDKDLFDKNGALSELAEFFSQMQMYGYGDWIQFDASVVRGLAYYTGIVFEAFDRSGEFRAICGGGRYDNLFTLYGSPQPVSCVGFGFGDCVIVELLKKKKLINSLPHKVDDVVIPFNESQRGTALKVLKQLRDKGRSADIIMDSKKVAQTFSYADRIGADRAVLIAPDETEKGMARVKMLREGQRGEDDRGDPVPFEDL
UniProt I6X8D2, whole entry: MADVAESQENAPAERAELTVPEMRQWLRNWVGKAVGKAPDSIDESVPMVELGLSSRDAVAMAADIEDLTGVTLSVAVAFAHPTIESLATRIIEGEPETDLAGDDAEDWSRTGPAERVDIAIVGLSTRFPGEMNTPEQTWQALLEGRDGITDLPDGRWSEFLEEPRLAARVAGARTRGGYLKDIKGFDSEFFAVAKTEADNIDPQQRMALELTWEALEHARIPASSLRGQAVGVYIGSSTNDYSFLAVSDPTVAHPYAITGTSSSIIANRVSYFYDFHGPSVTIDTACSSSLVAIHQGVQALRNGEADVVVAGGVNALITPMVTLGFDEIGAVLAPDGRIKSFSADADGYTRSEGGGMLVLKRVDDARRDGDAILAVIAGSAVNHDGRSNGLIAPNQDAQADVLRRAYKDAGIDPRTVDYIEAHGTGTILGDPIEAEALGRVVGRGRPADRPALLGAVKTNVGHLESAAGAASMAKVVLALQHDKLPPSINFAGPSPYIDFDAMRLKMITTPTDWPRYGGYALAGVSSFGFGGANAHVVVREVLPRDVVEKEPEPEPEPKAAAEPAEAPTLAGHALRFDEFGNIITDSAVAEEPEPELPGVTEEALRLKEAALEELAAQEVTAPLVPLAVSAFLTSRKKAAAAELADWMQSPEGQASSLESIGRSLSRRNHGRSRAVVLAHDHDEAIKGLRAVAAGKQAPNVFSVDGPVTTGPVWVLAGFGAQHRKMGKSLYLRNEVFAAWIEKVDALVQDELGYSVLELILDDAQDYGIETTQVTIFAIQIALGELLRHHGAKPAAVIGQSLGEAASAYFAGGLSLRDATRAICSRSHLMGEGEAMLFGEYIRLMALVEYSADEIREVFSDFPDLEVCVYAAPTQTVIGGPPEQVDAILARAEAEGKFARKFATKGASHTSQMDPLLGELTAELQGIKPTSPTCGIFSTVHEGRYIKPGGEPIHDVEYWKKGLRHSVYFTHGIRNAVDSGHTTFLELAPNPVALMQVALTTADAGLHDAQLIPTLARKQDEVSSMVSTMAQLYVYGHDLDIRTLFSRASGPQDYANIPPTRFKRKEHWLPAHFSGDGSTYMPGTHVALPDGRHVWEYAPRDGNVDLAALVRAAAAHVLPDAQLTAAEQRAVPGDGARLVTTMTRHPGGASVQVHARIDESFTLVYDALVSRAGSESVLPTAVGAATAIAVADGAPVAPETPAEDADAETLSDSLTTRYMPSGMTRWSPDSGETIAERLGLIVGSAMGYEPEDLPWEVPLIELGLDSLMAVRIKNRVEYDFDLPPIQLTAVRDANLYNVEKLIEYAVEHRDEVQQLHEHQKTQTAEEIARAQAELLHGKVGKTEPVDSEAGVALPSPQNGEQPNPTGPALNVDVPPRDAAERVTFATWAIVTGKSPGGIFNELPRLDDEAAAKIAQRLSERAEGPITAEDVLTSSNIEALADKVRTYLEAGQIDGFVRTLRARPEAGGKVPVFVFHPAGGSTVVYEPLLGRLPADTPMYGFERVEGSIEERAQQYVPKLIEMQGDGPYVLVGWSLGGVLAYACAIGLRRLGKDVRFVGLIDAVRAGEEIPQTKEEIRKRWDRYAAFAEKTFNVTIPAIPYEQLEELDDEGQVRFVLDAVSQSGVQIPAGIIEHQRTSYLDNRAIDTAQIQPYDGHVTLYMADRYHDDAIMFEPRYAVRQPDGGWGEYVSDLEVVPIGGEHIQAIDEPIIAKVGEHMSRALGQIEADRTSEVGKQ
UniProt P9WFT3, whole entry: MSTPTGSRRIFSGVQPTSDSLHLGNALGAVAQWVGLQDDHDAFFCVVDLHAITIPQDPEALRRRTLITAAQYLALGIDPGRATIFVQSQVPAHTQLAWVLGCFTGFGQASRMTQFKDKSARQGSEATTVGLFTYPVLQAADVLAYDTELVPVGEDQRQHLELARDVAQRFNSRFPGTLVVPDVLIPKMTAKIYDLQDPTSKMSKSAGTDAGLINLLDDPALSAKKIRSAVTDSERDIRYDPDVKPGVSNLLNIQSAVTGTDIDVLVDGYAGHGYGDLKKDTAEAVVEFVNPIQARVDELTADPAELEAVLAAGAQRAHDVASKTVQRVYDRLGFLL
UniProt Q4DA54, 1-478: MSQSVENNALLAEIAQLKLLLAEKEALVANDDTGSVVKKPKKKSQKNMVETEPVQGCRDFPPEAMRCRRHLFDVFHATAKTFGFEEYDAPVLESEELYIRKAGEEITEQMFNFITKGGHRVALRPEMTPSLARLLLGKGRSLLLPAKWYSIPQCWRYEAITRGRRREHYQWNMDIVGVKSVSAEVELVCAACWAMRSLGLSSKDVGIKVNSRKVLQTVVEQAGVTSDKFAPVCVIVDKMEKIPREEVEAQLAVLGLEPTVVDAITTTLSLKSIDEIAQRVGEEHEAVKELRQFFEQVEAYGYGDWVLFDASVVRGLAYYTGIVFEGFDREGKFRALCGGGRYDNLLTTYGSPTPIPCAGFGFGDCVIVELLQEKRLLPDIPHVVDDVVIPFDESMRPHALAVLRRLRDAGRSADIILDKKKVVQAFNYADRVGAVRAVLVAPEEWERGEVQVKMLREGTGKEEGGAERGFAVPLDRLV

Results are given as percent effect. The controls that fix the scale are not given in the record; negative values are as filed. The compounds are a random part of those screened. A dash means the value is not listed here; it may have been measured.

| # | compound | A | B | C | D |
|---|---|---|---|---|---|
| 1 | `CCn1c(N)nc2cc(C(=O)N3CCN(c4ccncc4)CC3)cnc21` | 13.7% | -21.25% | 2.974% | 7.027% |
| 2 | `CCn1ncc2c(C(F)(F)F)cc(-c3ccn(C)n3)nc21` | 8.621% | -20.81% | -0.3886% | -1.739% |
| 3 | `COCCN1CCC(CNC(=O)Nc2ccc(F)c(Cl)c2)C1` (centres undefined) | 16.53% | -29.75% | 1.407% | 2.041% |
| 4 | `COc1cccc(-c2cccc(CN3C[C@@H]4CC[C@H](C3)N(C)C4=O)c2)c1` | 10.83% | 6.34% | 2.27% | 11.84% |
| 5 | `COC1COC2(CCN(C(=O)c3ncccn3)CC2)C1` (centres undefined) | 18% | 3.206% | 16.29% | -4.598% |
| 6 | `Cc1nn(C)c2ncc(CN3CCCCCC3)cc12` | 17.07% | 2.552% | -3.118% | 15.87% |
| 7 | `Clc1cnccc1N1CCCOCC1` | 22.39% | -6.156% | 1.547% | 1.064% |
| 8 | `CNC(=O)c1cc2c(nc1N(C)C)CCN(S(=O)(=O)N(C)C)CC2` | 0% | 0.1616% | -4.056% | 7.65% |
| 9 | `Cc1cc(C)c2cc(CNCc3ccc(C)o3)c3nn(C)c(=O)n3c2c1` | 20.62% | 8.616% | - | 4.444% |
| 10 | `O=C(CCS(=O)(=O)C1CCCC1)N1CCC(O)(C(F)(F)F)C1` (centres undefined) | 23.94% | -2.583% | 9.99% | 3.185% |
| 11 | `Cc1cc2c(=O)n3c(nc2s1)CCN(C(=O)c1cnn(C)c1)CC3` | 6% | 2.11% | - | 5.243% |
| 12 | `COc1ccc(CCCC(=O)N2CCCC(n3cccn3)C2)cc1` (centres undefined) | 6.612% | -11.3% | -1.709% | 7.563% |
| 13 | `CCN(Cc1cnc(-c2ccccn2)nc1)C1CCS(=O)(=O)C1` (centres undefined) | 4.274% | 2.778% | -1.544% | 8.889% |
| 14 | `O=C(c1cc(C2CCCCN2CCO)n[nH]1)N1CCOCC1` (centres undefined) | 17.71% | -13.2% | - | 9.574% |
| 15 | `COCC(=O)N1CCN(C(=O)c2cccs2)[C@@H](C(=O)OC)C1` | 16.67% | -26.4% | -2.033% | 3.96% |
| 16 | `CC1CCN(Cc2ccc(CNC(=O)c3ccn(C)c(=O)c3)cc2)CC1` | 3.846% | 0.07667% | -0.145% | 1.714% |
| 17 | `Cn1cc(Cl)cc1C(=O)N1CCCN(Cc2nccn2C)CC1` | 7.339% | -26.21% | 1.664% | 5.882% |
| 18 | `O=C(N1CCOCC1)N1CCCC(c2ncncc2-c2ccncc2)C1` (centres undefined) | -8% | 2% | - | -2.247% |
| 19 | `CN(C)c1nccc(N(C)C2CCN(CC3CCOC3)CC2)n1` (centres undefined) | -1.333% | -24.14% | -0.08842% | -1.734% |
| 20 | `Cc1cnn(CC2CN(CC(=O)Nc3nncs3)CCO2)c1` (centres undefined) | 16.51% | -5.024% | -5.096% | 7.059% |
| 21 | `CN1CCN([C@@H]2CCN(CC3CCOC3)[C@H]2Cc2cnn(C)c2)CC1` (some centres undefined) | 5.263% | -16.88% | -9.558% | 6.897% |
| 22 | `OC(CN1CCCCCCC1)c1ccc(F)cc1` (centres undefined) | 31.2% | -14.4% | -2.987% | 3.422% |
| 23 | `Cc1nc(C)n(CC2CN(Cc3cccnc3)CCO2)n1` (centres undefined) | 43.94% | -6.037% | 0.09747% | 3.03% |
| 24 | `CC(C)(O)CCc1cccc(C(=O)N[C@@H](CO)C(N)=O)c1` | 7.5% | 10.27% | -5.065% | 5.797% |
| 25 | `CC(=O)N1C[C@@H]2CC[C@H](C1)N(S(=O)(=O)c1ccccc1Cl)C2` | 9.836% | -11.78% | -1.098% | 0.4292% |
| 26 | `Cc1ncc(CNC(=O)N(C)C2CCN(c3ccccc3)C2=O)s1` (centres undefined) | 5.6% | -1.03% | -1.887% | 4.183% |
| 27 | `COc1cccc(Cn2cccc(C#N)c2=O)c1` | 23.29% | -18.59% | -2.557% | 3.941% |
| 28 | `CCN(CC)C(=O)CN1CCC(c2nc(C)c3c(n2)N(C)CCC3)CC1` | 5.634% | 12.86% | 6.861% | 5.385% |
| 29 | `CCC1=N[C@@]2(CC[C@@H]3CN(C(=O)NCC(C)C)C[C@@H]32)C(=O)N1CCOC` | 11.11% | -34.4% | 0.4647% | 3.483% |
| 30 | `N#CC1(C(=O)N2CCN(Cc3ccon3)CC2)CCC1` | 3.371% | -15.71% | -0.8655% | 0% |
| 31 | `Cn1ccnc1-c1cccc(NC(=O)NCC(=O)NC(C)(C)C)c1` | 18.18% | -5.715% | 14.87% | -1.058% |
| 32 | `Cc1oc(CNC(=O)Cc2cccc(OC(F)F)c2)cc1C(=O)O` | -3.333% | 15.62% | -0.4854% | 3.922% |
| 33 | `CCc1c(C)nc2n(c1=O)CC(C(=O)NCc1cccs1)CS2` (centres undefined) | 5.479% | -37.79% | 11.87% | 2% |
| 34 | `CCOCC(O)CN1CCN(C(=O)c2cccc3[nH]ncc23)CC1` (centres undefined) | 20.75% | -7.112% | -0.1649% | -0.8333% |
| 35 | `CCCN1CCC(Cc2noc(-c3cc4cccnc4nc3C)n2)CC1` | 24.47% | -4.065% | 2.71% | 12.12% |

The first 4 entries again:

{"compound": "CCn1c(N)nc2cc(C(=O)N3CCN(c4ccncc4)CC3)cnc21", "A": 13.7, "B": -21.25, "C": 2.974, "D": 7.027}
{"compound": "CCn1ncc2c(C(F)(F)F)cc(-c3ccn(C)n3)nc21", "A": 8.621, "B": -20.81, "C": -0.3886, "D": -1.739}
{"compound": "COCCN1CCC(CNC(=O)Nc2ccc(F)c(Cl)c2)C1", "stereo": "centres undefined", "A": 16.53, "B": -29.75, "C": 1.407, "D": 2.041}
{"compound": "COc1cccc(-c2cccc(CN3C[C@@H]4CC[C@H](C3)N(C)C4=O)c2)c1", "A": 10.83, "B": 6.34, "C": 2.27, "D": 11.84}

The values are deposited in ChEMBL (CHEMBL3988442, “University of Dundee, Small-Polar-MMV Screening Library” (2021)).